Consider 23 compounds from PubChem BioAssay AID220 (DTP/NCI, 2004).

The list is a part of this screen's results and no random one: it gathers tests that were run many times, whatever their T/C, doses with no T/C, and many T/C values between a quarter and a half above the control. Further doses and runs are listed elsewhere. T/C is the treated group as % of the vehicle group. Schedule codes are those of the source, read here as Q, the interval in days (D) or hours (H), X, the number of doses. Some T/C values carry the count of animals alive at the toxicity check (mostly the fifth day); where none is given, no animal had died by that day. Some doses have a count of surviving animals in place of a T/C: the source files T/C as zero there, which appears to mark a toxic dose or a test without result, not a measured value. Survivors were counted at the toxicity check, usually on the fifth day, unless a day is given; later deaths do not show. Some entries were tested several times; their values stand side by side, smallest first.

In the test the test system is CD8F1 mice, subcutaneous mammary adenocarcinoma, T/C%. The experiment in a line: NCI In Vivo Anticancer Drug Screen. Data for tumor model Mammary Adenocarcinoma CD8F1 (subcutaneous) in CD8F1. The note with it: higher T/C = larger tumour. In short, it runs like this: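 Mice carrying transplanted tumors received test compound, and survival or tumor size was recorded. Each value is the treated-group measurement divided by the corresponding measurement in vehicle-dosed controls.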

[1] abbreviates: T/C endpoint: median tumor weight change, dose: 500.0 mg/kg/injection, schedule: Q01DX001 (ip), vehicle: saline with Tween-80.
The mark [2] stands for this setting: T/C endpoint: median tumor weight change, dose: 1000.0 mg/kg/injection, schedule: Q01DX001 (ip), vehicle: saline with Tween-80.
Setting [3] is: T/C endpoint: median tumor weight change, dose: 2000.0 mg/kg/injection, schedule: Q01DX001 (ip), vehicle: saline with Tween-80.
The mark [4] stands for this setting: T/C endpoint: median tumor weight (est.), dose: 400.0 mg/kg/injection, schedule: Q07DX005 (ip), vehicle: saline with Tween-80.

For the compound `O=NN(CCCl)C(=O)Oc1ccc(OC(=O)N(CCCl)N=O)cc1`, the survivor count (T/C endpoint: median tumor weight change, dose: 100.0 mg/kg/injection, schedule: Q01DX001 (ip), vehicle: Klucel (hydroxypropylcellulose) (HPC)) is given as 6 of 10 on day 36; the survivor count (T/C endpoint: median tumor weight change, dose: 200.0 mg/kg/injection, schedule: Q01DX001 (ip), vehicle: Klucel (hydroxypropylcellulose) (HPC)) is reported as 0 of 10 on day 36; the survivor count (T/C endpoint: median tumor weight change, dose: 400.0 mg/kg/injection, schedule: Q01DX001 (ip), vehicle: Klucel (hydroxypropylcellulose) (HPC)) is recorded as 0 of 10 on day 36.

On to `CN(N=O)C(=O)N[C@@H](C=O)[C@@H](O)[C@H](O)[C@H](O)CO`, for which the T/C is 127 % of control (T/C endpoint: median tumor weight (est.), dose: 64.0 mg/kg/injection, schedule: Q07DX005 (ip), vehicle: other, evaluated on day 30); 140 % of control (T/C endpoint: median tumor weight (est.), dose: 128.0 mg/kg/injection, schedule: Q07DX005 (ip), vehicle: Klucel (hydroxypropylcellulose) (HPC), evaluated on day 30); 149 % of control (T/C endpoint: median tumor weight (est.), dose: 128.0 mg/kg/injection, schedule: Q07DX005 (ip), vehicle: other, evaluated on day 30). For the same compound, the survivor count is listed as 5 of 10 (T/C endpoint: median tumor weight (est.), dose: 256.0 mg/kg/injection, schedule: Q07DX005 (ip), vehicle: Klucel (hydroxypropylcellulose) (HPC)) and 6 of 10 on day 30 (T/C endpoint: median tumor weight (est.), dose: 256.0 mg/kg/injection, schedule: Q07DX005 (ip), vehicle: other).

For the compound `CCC[P+](c1ccccc1)(c1ccccc1)c1ccccc1`, the T/C (T/C endpoint: median tumor weight (est.), dose: 3.12 mg/kg/injection, schedule: Q07DX004 (ip), vehicle: saline with Tween-80, evaluated on day 26) was 126 % of control. Further, the survivor count (T/C endpoint: median tumor weight (est.), dose: 100.0 mg/kg/injection, schedule: Q07DX005 (ip), vehicle: saline with Tween-80) was 1 of 10 on day 30.

Take `CN=C(N)N/N=C(\c1ccccc1)c1ccc(Br)cc1`: the survivor count is recorded as 0 of 10 on day 28 (T/C endpoint: median tumor weight change, dose: 125.0 mg/kg/injection, schedule: Q01DX001 (ip), vehicle: saline with Tween-80) and 0 of 10 on day 28 (T/C endpoint: median tumor weight change, dose: 250.0 mg/kg/injection, schedule: Q01DX001 (ip), vehicle: saline with Tween-80).

`Cc1cnc(/C=N\NC(N)=S)c2cccc(N)c12`: the T/C (T/C endpoint: median tumor weight (est.), dose: 3.12 mg/kg/injection, schedule: Q07DX005 (ip), vehicle: saline with Tween-80, evaluated on day 30) is 132 % of control.

Consider `C[CH2][Ge]([CH2]C)[CH2]C.C[CH2][Ge]([CH2]C)[CH2]C.C[CH2][Ge]([CH2]C)[O][Ge]([CH2]C)[CH2]C`, for which the T/C (T/C endpoint: median tumor weight change, dose: 125.0 mg/kg/injection, schedule: Q01DX001 (ip), vehicle: saline with Tween-80, evaluated on day 28) was 130 % of control. Also, the survivor count runs as follows: under setting [1], 6 of 10 on day 35; under setting [2], 1 of 10 on day 28 and 6 of 10 on day 35; under setting [3], 0 of 10 on day 28 and 3 of 10 on day 35.

As for `CC(=S)NC(O)C(=O)c1ccccc1` (configuration not stated), the T/C is 125 % of control (T/C endpoint: median tumor weight (est.), dose: 12.5 mg/kg/injection, schedule: Q07DX005 (ip), vehicle: saline with Tween-80, evaluated on day 30) and 132 % of control (T/C endpoint: median tumor weight (est.), dose: 50.0 mg/kg/injection, schedule: Q07DX005 (ip), vehicle: saline with Tween-80, evaluated on day 30). Besides, the survivor count under setting [4] is 1 of 10 on day 30.

For `C1CC[N-]CC1.C1CC[N-]CC1.C1CC[N-]CC1.[Cl][Rh]([Cl])[Cl]`, the survivor count (T/C endpoint: median tumor weight (est.), dose: 4.0 mg/kg/injection, schedule: Q07DX005 (ip), vehicle: saline) is 5 of 10; the survivor count (T/C endpoint: median tumor weight (est.), dose: 128.0 mg/kg/injection, schedule: Q07DX005 (ip), vehicle: saline) is listed as 6 of 10; the survivor count (T/C endpoint: median tumor weight (est.), dose: 200.0 mg/kg/injection, schedule: Q07DX005 (ip), vehicle: saline) is listed as 0 of 10 on day 30.

Turning to `C=C(C)C(=O)OC1C/C(CO)=C\C(O)C/C(C)=C/C2OC(=O)C(=C)C21` (configuration not stated), the survivor count (T/C endpoint: median tumor weight change, dose: 200.0 mg/kg/injection, schedule: Q01DX001 (ip), vehicle: saline + alcohol) is reported as 4 of 10 on day 32.

Consider `COC1CC(C)C(OC)c2cc(O)cc(c2O)NC(=O)/C(C)=C/C=C\C(C)C(OC(N)=O)/C(C)=C\C(C)C1OC` (configuration not stated), for which the survivor count runs as follows: (T/C endpoint: median tumor weight change, dose: 50.0 mg/kg/injection, schedule: Q01DX001 (ip), vehicle: saline + Tween-80 + alcohol) 0 of 10 on day 28; (T/C endpoint: median tumor weight change, dose: 100.0 mg/kg/injection, schedule: Q01DX001 (ip), vehicle: saline + Tween-80 + alcohol) 1 of 10 on day 28.

Turning to `[N-]=[N+]=[N-]`, the survivor count (T/C endpoint: median tumor weight change, dose: 48.0 mg/kg/injection, schedule: Q01DX001 (ip), vehicle: saline) is reported as 0 of 10 on day 31.

Regarding `COc1cc([C@@H]2c3cc4c(c(O)c3C[C@H]3COC(=O)[C@@H]32)OCO4)cc(OC)c1OC`, the T/C is 137 % of control (T/C endpoint: median tumor weight (est.), dose: 0.5 mg/kg/injection, schedule: Q07DX005 (ip), vehicle: saline, evaluated on day 30) and 126 % of control (T/C endpoint: median tumor weight (est.), dose: 1.0 mg/kg/injection, schedule: Q07DX005 (ip), vehicle: saline, evaluated on day 30).

On to `CN(C=O)C(C(=O)Nc1cccc2c(OC(=O)C(N(C)C=O)(N(C)C=O)N(C)C=O)c(N=Nc3ccc(S(=O)(=O)Nc4nccs4)cc3)cc(N=Nc3ccc(S(=O)(=O)Nc4nccs4)cc3)c12)(N(C)C=O)N(C)C=O` (tested in a mixture with another compound), for which the T/C (T/C endpoint: median tumor weight change, dose: 125.0 mg/kg/injection, schedule: Q01DX001 (ip), vehicle: saline with Tween-80, evaluated on day 29) is 147 % of control and the T/C (T/C endpoint: median tumor weight change, dose: 500.0 mg/kg/injection, schedule: Q01DX001 (ip), vehicle: saline with Tween-80, evaluated on day 29) is 139 % of control.

For `CCCCCc1cc(/C=C2/N=C(c3ccc[nH]3)C=C2OC)[nH]c1C`, under “T/C endpoint: median tumor weight (est.), dose: 2.0 mg/kg/injection, schedule: Q07DX005 (ip), vehicle: suspension in saline, evaluated on day 30”, the T/C is 140 % of control. In addition, for the setting “T/C endpoint: median tumor weight (est.), dose: 16.0 mg/kg/injection, schedule: Q07DX005 (ip), vehicle: suspension in saline”, the survivor count was 6 of 10 on day 30.

`Cc1ccc2c(ccc(CC(=S)[S-])[n+]2C)c1`: where the note is “T/C endpoint: median tumor weight (est.), dose: 25.0 mg/kg/injection, schedule: Q07DX005 (ip), vehicle: Klucel (hydroxypropylcellulose) (HPC), evaluated on day 30”, the T/C is 137 % of control [9 of 10 alive on day 30]. Also, the survivor count is, setting by setting: (T/C endpoint: median tumor weight (est.), dose: 200.0 mg/kg/injection, schedule: Q07DX005 (ip), vehicle: Klucel (hydroxypropylcellulose) (HPC)) 3 of 10 on day 30; (T/C endpoint: median tumor weight (est.), dose: 400.0 mg/kg/injection, schedule: Q07DX005 (ip), vehicle: Klucel (hydroxypropylcellulose) (HPC)) 0 of 10 on day 30.

In the case of `CC1OC(OC2CC(O)(C(=O)CO)Cc3c(O)c4c(c(O)c32)C(=O)c2ccccc2C4=O)CC(N)C1O` (configuration not stated), the T/C (T/C endpoint: mean tumor weight, dose: 0.25 mg/kg/injection, schedule: Q07DX006 (ip), vehicle: saline, evaluated on day 40) is 142 % of control. For the same compound, the survivor count (T/C endpoint: median tumor weight change, dose: 10.0 mg/kg/injection, schedule: Q01DX001 (ip), vehicle: water) was 2 of 10 on day 35.

Turning to `C/C=C/c1cc2c(c(=O)o1)C(=O)[C@@H](O)[C@H](C)O2`, the survivor count under setting [4] is given as 4 of 10 on day 30.

As for `O=C(/C=C(\Cl)C(=O)NO)NO`, the survivor count (T/C endpoint: median tumor weight change, dose: 500.0 mg/kg/injection, schedule: Q01DX001 (ip), vehicle: suspension in saline) was 3 of 10 on day 30 and the survivor count (T/C endpoint: median tumor weight change, dose: 1000.0 mg/kg/injection, schedule: Q01DX001 (ip), vehicle: suspension in saline) was 0 of 10 on day 30.

In the case of `CCN(CC)CCNc1ccc(CO)c2sc3ccccc3c(=O)c12`, the T/C (T/C endpoint: median tumor weight (est.), dose: 6.25 mg/kg/injection, schedule: Q07DX005 (ip), vehicle: clinical formulation, evaluated on day 30) was 125 % of control. For the same compound, the survivor count (T/C endpoint: median tumor weight (est.), dose: 200.0 mg/kg/injection, schedule: Q07DX005 (ip), vehicle: clinical formulation) is 1 of 10.

Consider `ClCc1ccc2ccccc2n1`, for which the survivor count reads like this: under setting [1], 0 of 10 on day 32; under setting [2], 0 of 10 on day 32.

As for `Oc1ccc(CCl)c2cccnc12`, the survivor count is, setting by setting: (T/C endpoint: median tumor weight change, dose: 250.0 mg/kg/injection, schedule: Q01DX001 (ip), vehicle: saline) 5 of 10 on day 34; (T/C endpoint: median tumor weight change, dose: 500.0 mg/kg/injection, schedule: Q01DX001 (ip), vehicle: saline) 1 of 10 on day 34; (T/C endpoint: median tumor weight change, dose: 1000.0 mg/kg/injection, schedule: Q01DX001 (ip), vehicle: saline) 0 of 10 on day 34.

For the compound `O=C1c2ccccc2C(=O)c2c(NCCNCCO)ccc(O)c21`, the survivor count (T/C endpoint: median tumor weight change, dose: 400.0 mg/kg/injection, schedule: Q01DX001 (ip), vehicle: saline with Tween-80) is listed as 4 of 10 on day 31.

Take `CCOC(=O)c1[nH]c2cccc3c2c1CC(Br)C3=O` (configuration not stated): the survivor count is, setting by setting: under setting [1], 4 of 10 on day 31; under setting [2], 3 of 10 on day 31; under setting [3], 0 of 10 on day 31.
